Results on one sequence are retold here after article PMC9775280.

The exact form of at least one protein or probe is not confirmed. Negatives hold for the conditions tested.

For series [1], the system named is proplatelet basic protein (PPBP). The series is described as follows: electrochemical aptasensor (DPV). The settings on record: 1 ng/mL, current below blank, attributed to physical adsorption; 5'-NH2; PBS as solvent, 100 uL sample; DPV -0.6 to 0 V, peak about -0.4 V; BSA-blocked electrode; salt and assay temperature not stated; commercial protein; single-stranded DNA.

Series [2] concerns the target CA125 (CA125 standard) (UniProt Q8WXI7). The series is described as follows: electrochemical aptasensor (DPV). The note with it: 1 ng/mL, current below blank, attributed to physical adsorption; 5'-NH2; PBS as solvent, 100 uL sample; DPV -0.6 to 0 V, peak about -0.4 V; BSA-blocked electrode; salt and assay temperature not stated; commercial protein; single-stranded DNA.

On to “GCCTGTAAGGTGGTCGGTGTGGCGAGTGTGTTAGGAGAGATTGC [CRP aptamer]”, for which the binding result in series [1] and in series [2] was “no binding” throughout.
